# Screening data, single-dose tests

Amino acid sequences for entries named in this document (tags omitted). Residues count along the entry.
UniProt Q4DA54, 1-478: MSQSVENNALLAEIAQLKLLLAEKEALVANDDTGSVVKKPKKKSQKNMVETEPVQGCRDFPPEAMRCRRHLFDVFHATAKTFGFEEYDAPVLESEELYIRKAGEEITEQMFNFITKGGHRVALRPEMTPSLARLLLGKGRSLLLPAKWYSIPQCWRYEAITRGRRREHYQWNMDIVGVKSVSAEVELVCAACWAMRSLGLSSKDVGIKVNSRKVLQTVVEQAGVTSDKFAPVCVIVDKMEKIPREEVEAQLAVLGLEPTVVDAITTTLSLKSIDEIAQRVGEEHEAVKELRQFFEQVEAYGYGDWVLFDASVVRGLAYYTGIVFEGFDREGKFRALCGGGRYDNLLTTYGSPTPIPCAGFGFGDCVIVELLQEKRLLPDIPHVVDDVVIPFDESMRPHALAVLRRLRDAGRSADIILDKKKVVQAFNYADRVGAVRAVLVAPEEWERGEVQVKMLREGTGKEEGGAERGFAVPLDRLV
UniProt P9WPC5, whole entry: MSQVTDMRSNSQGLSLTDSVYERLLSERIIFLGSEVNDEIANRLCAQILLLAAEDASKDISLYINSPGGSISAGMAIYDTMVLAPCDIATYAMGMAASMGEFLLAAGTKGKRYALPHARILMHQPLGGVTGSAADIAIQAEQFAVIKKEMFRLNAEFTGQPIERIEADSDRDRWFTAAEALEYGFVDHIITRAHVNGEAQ
UniProt P9WPC3, whole entry partner: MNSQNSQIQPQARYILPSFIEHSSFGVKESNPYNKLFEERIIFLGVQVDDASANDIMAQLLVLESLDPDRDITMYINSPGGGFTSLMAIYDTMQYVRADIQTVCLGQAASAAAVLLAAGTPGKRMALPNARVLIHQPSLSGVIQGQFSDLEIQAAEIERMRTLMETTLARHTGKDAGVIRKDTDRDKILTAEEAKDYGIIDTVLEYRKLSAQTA
UniProt Q8IDJ8, 1-583: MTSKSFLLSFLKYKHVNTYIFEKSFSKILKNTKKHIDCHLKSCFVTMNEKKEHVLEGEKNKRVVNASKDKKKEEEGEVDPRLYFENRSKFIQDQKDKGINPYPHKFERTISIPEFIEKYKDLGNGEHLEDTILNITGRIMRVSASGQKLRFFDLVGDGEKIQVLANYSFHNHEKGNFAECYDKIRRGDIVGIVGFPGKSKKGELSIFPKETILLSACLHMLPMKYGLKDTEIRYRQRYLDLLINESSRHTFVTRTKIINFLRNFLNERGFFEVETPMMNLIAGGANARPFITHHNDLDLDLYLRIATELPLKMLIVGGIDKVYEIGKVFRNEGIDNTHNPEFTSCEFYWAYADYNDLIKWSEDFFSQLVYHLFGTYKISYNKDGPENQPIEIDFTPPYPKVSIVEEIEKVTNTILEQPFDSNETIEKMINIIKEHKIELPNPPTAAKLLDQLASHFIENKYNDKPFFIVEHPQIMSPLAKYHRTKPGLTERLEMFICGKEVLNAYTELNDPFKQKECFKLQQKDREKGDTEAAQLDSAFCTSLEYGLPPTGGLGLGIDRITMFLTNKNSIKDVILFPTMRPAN
UniProt A4I591, 1-473: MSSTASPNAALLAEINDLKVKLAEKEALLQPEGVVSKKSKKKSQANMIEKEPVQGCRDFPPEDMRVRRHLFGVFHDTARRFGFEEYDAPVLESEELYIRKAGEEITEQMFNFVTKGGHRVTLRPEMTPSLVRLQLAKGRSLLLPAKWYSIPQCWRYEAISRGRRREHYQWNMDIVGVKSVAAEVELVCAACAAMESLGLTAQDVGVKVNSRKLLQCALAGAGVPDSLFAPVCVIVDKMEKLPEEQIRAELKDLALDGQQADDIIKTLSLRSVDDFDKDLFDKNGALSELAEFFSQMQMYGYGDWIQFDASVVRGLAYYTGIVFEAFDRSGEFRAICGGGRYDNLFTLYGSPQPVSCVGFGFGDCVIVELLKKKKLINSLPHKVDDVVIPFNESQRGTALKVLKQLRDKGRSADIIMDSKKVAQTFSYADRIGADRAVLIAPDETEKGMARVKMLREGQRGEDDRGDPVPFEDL

The values are deposited in ChEMBL (CHEMBL3988442, “University of Dundee, Small-Polar-MMV Screening Library” (2021)).

Each number is a percent effect as filed. The record does not define 0% and 100%; most values in the screen are far below 50% and negative numbers occur (in some assays of this library far below -100). This is an unselected part of the compounds tested.

A: 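Histidine-tRNA ligase, Trypanosoma cruzi CL Brener (UniProt Q4DA54). Enzyme assay of histidyl-tRNA synthetase; the read-out is not stated. Concentration: 30 µM. The record gives no direction; compounds that gave an IC50 in retests scored well above the rest, so higher reads as stronger inhibition. Size under these conditions: about 69,000 compounds, about 31 of them at 50% or above in at least one test.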
B: 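Protease assay of ClpP1P2, read by the AMC dye that it sets free. Target: ClpP1P2, Mycobacterium tuberculosis (UniProt P9WPC5 and UniProt P9WPC3). Tested at 50 µM. Higher reads as stronger inhibition, judged from the few compounds that gave an IC50. Most other retested compounds had strongly negative values. Size under these conditions: about 69,000 compounds, about 10 of them at 50% or above in at least one test.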
C: 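Lysine-tRNA ligase, Plasmodium falciparum 3D7 (UniProt Q8IDJ8). Enzyme assay of the cytosolic lysyl-tRNA synthetase in 384-well plates, read by luminescence. Concentration: 30 µM. Direction is inferred from only a few compounds that gave an IC50; most scored high, so higher reads as stronger inhibition. Of about 69,000 compounds tested this way, about 49 (0.071%) reached 50% or more in at least one test.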
D: 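Histidine-tRNA ligase, Leishmania infantum (UniProt A4I591). Enzyme assay of histidyl-tRNA synthetase; the read-out is not stated. Compounds at 30 µM. The record gives no direction; compounds that gave an IC50 in retests scored well above the rest, so higher reads as stronger inhibition. The assay is labelled LdHisRS but filed under L. infantum. About 69,000 compounds were tested under these conditions; 0.6% (about 410) showed 50% or more at least once.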

| # | compound | A | B | C | D |
|---|---|---|---|---|---|
| 1 | `O=C1COC2(CCN(c3ccccn3)CC2)CN1` | 6.897 | 7.81 | 4.723 | 2.632 |
| 2 | `COC[C@H]1CCCN1c1nccc(-c2cnn(-c3ccccc3C)c2)n1` | 18.41 | -36.55 | 3.353 | 29.37 |
| 3 | `Cn1c(=O)ccn(CC(=O)Nc2cnccc2O)c1=O` | 5.172 | 7.569 | 5.608 | 16.67 |
| 4 | `COc1cc2cc(C(=O)NCCC(=O)O)n(C)c2c(OC)c1OC` | 4.348 | 4.709 | 3.209 | 1.724 |
| 5 | `CCc1cnc2c(c1NCc1ccncc1)c(=O)n(C)c(=O)n2C` | 4.132 | -2.331 | -2.284 | 13.46 |
| 6 | `Cc1occc1C(=O)N1CCCC1c1ccc(C(=O)N2CCOCC2)s1` (centres undefined) | 7.609 | -3.32 | 5.953 | 19.74 |
| 7 | `Oc1cccc(CN2C[C@H]3CC[C@@H]2CN(Cc2cccnc2)C3)c1` | 3.261 | 0.5307 | -3.542 | 1.316 |
| 8 | `CS(=O)(=O)N1CCc2c(cccc2NC(=O)CC(F)(F)F)C1` | 5.435 | 1.355 | 9.507 | 20 |
| 9 | `Cc1cccc(C)c1OC1CN(C(=O)C2CCCN(C(=O)N(C)C)C2)C1` (centres undefined) | 9.091 | -2.559 | 5.148 | 15 |
| 10 | `Cn1nnnc1SCCNC(=O)C1CCN(C(=O)C2CC2)CC1` | -7.027 | 18.72 | -4.377 | 0 |
| 11 | `Cc1cccc(N2Cc3nc(N4CCC(C)CC4)ncc3C2=O)c1` | 0 | 7.736 | 4.446 | 12.39 |
| 12 | `Cc1ccc(C2(C(=O)NCCCn3cccn3)CCOCC2)cc1` | -3.478 | 14.94 | -5.066 | 12.07 |
| 13 | `CCOC(=O)NCCC(=O)NCc1ccnc(Oc2ccc(F)cc2)c1` | 7.738 | -7.593 | 1.894 | 13.98 |
| 14 | `COc1c(CNCc2ccc(N3CCOCC3)cc2)c(C)nn1C` | 1.63 | -3.774 | 0.4186 | 10.67 |
| 15 | `CC(C)=CCN1CCN(C(=O)C2CC2)CC1` | 2.762 | 0.1444 | 4.349 | -8.333 |
| 16 | `COc1ccc(Cc2cccc(C3CCN(C)CC3)n2)cc1` | 10.27 | 2.067 | -0.8727 | 5.556 |
| 17 | `Cn1ccnc1CN1C[C@@H]2[C@@H](C1)OCC(=O)N2CC1CCCC1` | 4.878 | -5.222 | 1.877 | 12.82 |
| 18 | `CN(C)C1CCN(C(=O)c2ccc(Cn3ccccc3=O)o2)CC1` | 2.682 | 6.73 | 5.605 | 15.38 |
| 19 | `CN(C)CCN1CCN(CC2CC2)c2ncccc2C1` | 7.477 | -10.97 | -1.528 | 18.06 |
| 20 | `CCCN(CCO)C(=O)C1CCC(=O)N(Cc2ccc(Cl)cc2)C1` (centres undefined) | 6.358 | -11.22 | 6.165 | 4 |
| 21 | `Cc1ccc(C(=O)N2CCC(Oc3cccc(C)c3C)CC2)c(=O)[nH]1` | 2.959 | -31.09 | 1.597 | 17.86 |
| 22 | `Cc1ccc(CN2C[C@H]3C[C@H](C(=O)NCC4CC4)N(C)[C@H]3C2)o1` | 1.442 | 3.007 | 2.346 | 24.77 |
| 23 | `Fc1ccc(-c2n[nH]cc2-c2ccnc(NCCN3CCCC3)n2)cc1` | 4.151 | 8.237 | -0.7298 | 4.054 |
| 24 | `Cc1noc(C2CCC3(CCN(C(=O)c4ncccn4)CC3)O2)n1` (centres undefined) | 2.804 | -11.34 | 3.612 | 1.389 |
| 25 | `O=C(NCc1ccncc1)N1CCSCC1c1ccc(Cl)cc1` (centres undefined) | 5.882 | 0.2244 | 4.189 | 29.41 |
| 26 | `CCCN(Cc1cccnc1)Cc1ccc(C2CCCCO2)o1` (centres undefined) | 6.186 | -5.943 | -3.173 | 5.714 |
| 27 | `CC(NC(=O)NCCCN(C)S(C)(=O)=O)c1cccc(Cl)c1` (centres undefined) | 5.639 | 3.441 | 5.42 | 18.92 |
| 28 | `CN(Cc1ccco1)[C@@H]1CN(Cc2ccsc2)C[C@@H]2CCCO[C@@H]21` | 0.8264 | 6.239 | -0.03499 | 16.36 |
| 29 | `O=C(CN1CCCC(c2ncc[nH]2)C1)NCC(F)(F)F` (centres undefined) | 6.548 | -8.909 | 0.04676 | 9.677 |
| 30 | `O=C(CC1CC2(CCN(CC3CC3)CC2)c2ccccc21)NC1CCC1` (centres undefined) | 4 | 6.673 | 2.838 | 9.735 |
| 31 | `O=C(CCc1cc(O)no1)N1CCC(Cc2ccc(F)cc2)CC1` | 3.96 | -14.06 | 5.741 | 20.55 |
| 32 | `CC(C)Nc1ccnc(-c2ccnc3c2ccn3C)n1` | 4.902 | -205 | 8.356 | 17.6 |
| 33 | `Cc1nccc(N2CCCC(C)(c3[nH]ncc3C(N)=O)C2)n1` (centres undefined) | 12.31 | -6.213 | -0.1453 | 18.31 |
| 34 | `COc1ccc(C2CC(=O)Oc3cc(C)[nH]c(=O)c32)cc1` (centres undefined) | 1.639 | 0.6876 | 4.163 | 7.767 |
| 35 | `CS(=O)(=O)Cc1cccc(CNS(=O)(=O)c2ccc(F)c(F)c2)c1` | 1.176 | 2.805 | -1.913 | 7.143 |
| 36 | `Cc1cccc(CN(Cc2ccccn2)S(=O)(=O)N(C)C(C)C)c1` | 10.26 | -12.74 | -4.537 | 8.163 |
| 37 | `Cn1ccnc1Sc1ccc(S(N)(=O)=O)cn1` | 4.124 | -19.65 | 1.12 | 10.34 |
| 38 | `C[C@@H]1CN(Cc2ccco2)CCN1C(=O)Cc1ccccc1F` | 11.11 | 8.355 | 0.6549 | 11.51 |
| 39 | `NC(=O)c1ccccc1Oc1cccc(C2CCCNC2)n1` (centres undefined) | 10.9 | -15.41 | -0.6255 | 12.77 |
| 40 | `COCCN1C[C@@H]2CN(Cc3ccc(C)s3)CCC[C@]2(C(=O)O)C1` | -3.175 | -10.08 | -1.109 | -8.182 |
| 41 | `CCS(=O)(=O)N1CC(=O)N(CCOc2ccccc2)CC(O)C1` (centres undefined) | 2.312 | -0.9505 | 4.443 | 20.62 |
| 42 | `COc1ccc(CN2CCCC2)cc1Oc1cccc(C#N)n1` | 11.11 | -7.276 | 5.378 | 19.35 |
| 43 | `CCOCC1c2c(ncn2C(C)C)CCN1C(C)C` (centres undefined) | 1.604 | 0.3404 | 1.804 | 14.53 |
| 44 | `CC(NC(=O)CN(C)C(C)C)c1ccc(Oc2cccnc2)c(F)c1` (centres undefined) | 3.96 | -4.405 | 6.815 | 17.39 |

For reference, 3 entries once more:

| compound | A | B | C | D |
|---|---|---|---|---|
| `CCc1cnc2c(c1NCc1ccncc1)c(=O)n(C)c(=O)n2C` | 4.132 | -2.331 | -2.284 | 13.46 |
| `Cn1c(=O)ccn(CC(=O)Nc2cnccc2O)c1=O` | 5.172 | 7.569 | 5.608 | 16.67 |
| `Cn1nnnc1SCCNC(=O)C1CCN(C(=O)C2CC2)CC1` | -7.027 | 18.72 | -4.377 | 0 |